According to PubChem BioAssay AID1347076 (National Center for Advancing Translational Sciences (NCATS), 2019):
Among all 400,000 compounds or so, about 13,000 (3.2%) were called active. Inconclusive results, whose numbers are uncertain, are shown with a selection of clear calls. Calls follow the shape of the dose curve; as a rule, active = well fitted cell-killing curve with a large enough effect; inconclusive = small, poorly fitted or top-dose-only effect, or effect the other way; inactive = flat fitted curve, though single readings scatter. Potencies of inconclusive entries are doubtful fits and often do not repeat.

Assay: qHTS assay for MDR1-selective chemotherapeutics: Primary screen using the drug-selected MDR subline cells KB-V1; also: nearly all actives have a fitted effect of over 60% in size
Details: KB-V1 MDR cells viability, CellTiter-Glo, 72 h; activity change, negative = cytotoxicity: at 46.1 µM (top of the series)
Procedure, shortened: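 Potencies derive from concentration-effect curves fitted to normalized luminescence (CellTiter-Glo) of KB-V1 cells treated for 72 h at 37 degrees C in phenol-red-free DMEM containing 10% FBS.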
% is scaled to controls: 0 for no effect and ±100 for the full control effect; potency is read from the fitted curve at half-maximal effect.

| SMILES | Potency | activity change, negative = cytotoxicity |
| --- | --- | --- |
| CC(C)(C)c1ccc(C(=O)Nc2cccc3c(=O)[nH][nH]c(=O)c23)cc1 | inactive | – |
| COC(=O)c1ccc(N2CCCCC2)c(NC(=O)c2ccco2)c1 | inactive | – |
| CC(C)(C)C(=O)Nc1cccc(-c2nc3ccccc3c(=O)o2)c1 | inactive | – |
| Cc1ccccc1OCC(=O)Nc1ccc2nc(SCC(N)=O)sc2c1 | inactive | – |
| O=C(CCl)N1CCN(S(=O)(=O)c2ccc3c(c2)CCC3)CC1 | inconclusive: 29.1 µM [cytotoxic, single point] | – |
| COc1ccc(C(=O)/C=C/C(=O)N(Cc2ccccc2)C(C(=O)NC2CCCCC2)c2ccncc2)c(O)c1 (centres undefined) | active: 0.92 µM | – |
| O=C(Nc1cccc(Oc2ccc3c(c2)C(=O)NC3=O)c1)c1cccs1 | inconclusive: 16.4 µM [cytotoxic, partial curve] | – |
| COC(=O)[C@@]1(Cc2ccccc2)[C@H]2C(=O)N(C)C(=O)[C@H]2[C@H]2CN=C(SC)N21 | inactive | – |
| CCOC(=O)c1ccc(NCc2ccc3c(c2)OCO3)cc1 | active: 20.6 µM | – |
| O=C1CC(c2ccccc2)Cc2[nH]c(=O)c(C(=O)O)cc21 (centres undefined) | inconclusive: 29.1 µM [rising, single point] | – |
| CC(C)c1ccc(C(=O)N2CCCC(c3cc(C(=O)Nc4ccc5c(c4)OCO5)no3)C2)cc1 (centres undefined) | inconclusive: 20.6 µM [cytotoxic, single point] | – |
| CC(C)OC(=O)CC(=O)CSc1nc(-c2ccc(F)cc2)cc(-c2ccccc2)c1C#N | inactive | – |
| O=C(c1cc2c(s1)CCCCC2)N1CCN(c2ncccn2)CC1 | active: 16.4 µM | – |
| CN1CCN(c2ccc(CNS(=O)(=O)Cc3cccc(C(F)(F)F)c3)cc2)CC1 | inconclusive: 2.91 µM [cytotoxic, full curve] | – |
| CC(=O)c1cccc(NS(=O)(=O)c2ccc(-c3cnc(C4CC4)o3)cc2)c1 | inconclusive: 23.1 µM [cytotoxic, single point] | – |
| O=C(Nc1ccc(F)cc1)c1cnc(-c2ccccc2)nc1-c1ccccc1 | inconclusive: 5.17 µM [cytotoxic, partial curve] | – |
| CCc1nnc(NS(=O)(=O)c2ccc(NC(=O)c3ccc([N+](=O)[O-])s3)cc2)s1 | inactive | – |
| CC(C)Oc1ccc(/C=N/NC(=O)C2CCCN2S(=O)(=O)c2ccc(Cl)cc2)cc1 (centres undefined) | inconclusive: 29.1 µM [cytotoxic, single point] | – |
| Cc1n[nH]c(C)c1N=Nc1ccc(Br)cc1 | inconclusive: 29.1 µM [cytotoxic, single point] | – |
| CN(c1ccc(C(=O)Nc2ccccc2Sc2ccccc2)cc1)S(C)(=O)=O | inconclusive: 20.6 µM [cytotoxic, partial curve] | – |
| COC(=O)[C@]12CCCCC=C1N(Cc1cccc3ccccc13)C(=O)[C@H](CC(=O)N1CCCCC1)C2 | inconclusive: 29.1 µM [rising, single point] | – |
| O=S(=O)(c1cc(Cl)ccc1Cl)N1CCN(c2ccccn2)CC1 | inconclusive: 20.6 µM [cytotoxic, single point] | – |

| SMILES | Potency | activity change, negative = cytotoxicity |
| --- | --- | --- |
| CN(Cc1ccccc1)C(=O)c1cccc(NC(=O)Cc2cccc([N+](=O)[O-])c2)c1 | inconclusive: 0.0052 µM [rising, full curve, poor fit] | – |
| O=S(=O)(Nc1ccc(C(F)(F)F)cc1)c1ccc2c(c1)OCCO2 | inconclusive: 16.4 µM [cytotoxic, single point] | – |
| Cc1cccc(C(=O)NCC(=O)N2CCN(c3ccccn3)CC2)c1 | active: 20.6 µM | – |
| COc1ccccc1N1CCN(Cc2nnc(-c3ccccc3C)o2)CC1 | – | inconclusive: -10.3% |
| O=[N+]([O-])c1ccc(Nc2cccc3c2[nH]c2c(-c4ccccc4)nccc23)c([N+](=O)[O-])c1 | inconclusive: 6.51 µM [cytotoxic, partial curve] | – |
| COc1ccc(CNC(=O)CN(C(=O)CCC(=O)Nc2ccccn2)c2ccc(C)cc2)cc1 | inconclusive: 7.31 µM [cytotoxic, partial curve] | – |
| Cc1ccc2c(c1)N(C(=O)CCC(=O)N1CCC(C(N)=O)CC1)CC(C)O2 (centres undefined) | inactive | – |
| COCCn1c(SCC(=O)Nc2cccc(S(N)(=O)=O)c2)nc2ccccc21 | inactive | – |
| O=C(NCCOc1ccccc1Cl)C(=O)Nc1ccccc1 | inconclusive: 18.4 µM [cytotoxic, single point] | – |
| O=Cc1c(-c2ccc(Cl)cc2)oc2ccc(O)cc12 | inconclusive: 2.31 µM [rising, partial curve, poor fit] | – |
| O=C(Nc1cscc1S(=O)(=O)c1ccccc1)c1ccccc1Cl | inconclusive: 16.4 µM [cytotoxic, single point] | – |
| Cc1cccc(C)c1NC(=S)N(CCN1CCCCCC1)Cc1ccco1 | inconclusive: 7.31 µM [cytotoxic, partial curve] | – |
| CSc1oc(-c2ccccc2)nc1S(=O)(=O)c1ccc(C)cc1 | active: 20.6 µM | – |
| C/C(=N\NC(=O)C(N)=O)c1ccc(O)cc1O | inactive | – |
| COc1cccc(/C=N/NC(=O)c2ccc(-c3ccccc3)cc2)c1O | inconclusive: 5.17 µM [cytotoxic, full curve, poor fit] | – |
| O=C(c1ccc2c(c1)N(Cc1ccc(Cl)cc1)C(=O)c1ccccc1S2=O)N1CCC(Cc2ccccc2)CC1 (centres undefined) | inconclusive: 16.4 µM [cytotoxic, partial curve, poor fit] | – |
| COc1cc(C(=O)NCCC2=CCCCC2)cc(OC)c1OC | inactive | – |
| O=S(=O)(Nc1ccc(Oc2ncccn2)c(Cl)c1)c1ccc(Cl)cc1 | inconclusive: 29.1 µM [cytotoxic, single point] | – |
| CCN(CC)CCn1c2c(c(SCC(=O)Nc3cc(C)cc(C)c3)nc1=O)CCC2 | inactive | – |
| CCOC(=O)/C(=N\Nc1ccc(C(C)=O)cc1)c1csc(Nc2ccccc2)n1 | inconclusive: 20.6 µM [cytotoxic, single point] | – |
| O=C(/C=C/c1ccccc1)N1CCN(S(=O)(=O)c2ccc(F)cc2)CC1 | inconclusive: 11.6 µM [cytotoxic, partial curve] | – |
| FC(F)Oc1ccc(NC(=S)N2CCc3ccccc32)cc1 | inactive | – |

By substructure: the entries above containing a furan ring, fused or not (three)

| SMILES | Potency | activity change, negative = cytotoxicity |
| --- | --- | --- |
| COC(=O)c1ccc(N2CCCCC2)c(NC(=O)c2ccco2)c1 | inactive | – |
| O=Cc1c(-c2ccc(Cl)cc2)oc2ccc(O)cc12 | inconclusive: 2.31 µM [rising, partial curve, poor fit] | – |
| Cc1cccc(C)c1NC(=S)N(CCN1CCCCCC1)Cc1ccco1 | inconclusive: 7.31 µM [cytotoxic, partial curve] | – |
